# Article PMC7819943, “Rice protein-binding microarrays: a tool to detect cis-acting elements near promoter regions in rice”
# Protein sequences, listed by entry. Tags and fused reporters are not part of them.
# UniProt Q0JBA9, entry or part of it: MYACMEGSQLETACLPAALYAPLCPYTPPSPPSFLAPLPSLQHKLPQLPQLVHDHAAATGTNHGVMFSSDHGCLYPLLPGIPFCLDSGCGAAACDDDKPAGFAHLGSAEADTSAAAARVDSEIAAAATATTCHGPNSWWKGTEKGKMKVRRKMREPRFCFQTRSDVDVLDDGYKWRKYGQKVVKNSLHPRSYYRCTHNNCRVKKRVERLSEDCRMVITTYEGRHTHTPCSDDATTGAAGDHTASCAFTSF
# This is one part of the list.
# Target: OsWRKY34 (Oryza sativa, UniProt Q0JBA9 1-250)
# Assay: protein-binding microarray (RPBM); PBS, 2% BSA, 51.3 ng/ul salmon testes DNA, 50 uM zinc acetate, 200 nM TF, 25 C, 1 h; high values mean tight binding
# Details: protein: recombinant; tags: N-terminal polyhistidine and DsRed monomer fusion (pET32a); label: CyDye5-dUTP incorporated in the synthesized complementary strand; 3' TTTTT single-stranded linker to array surface; dsDNA, one strand shown
# Outline: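 For the binding signal, per-feature fluorescence intensity was read in arbitrary units on an Axon 4000B scanner. Before scanning, a 2% BSA-blocked custom Agilent array made double-stranded with Cy5-dUTP was washed after 1 h at 25 °C with 200 nM protein and 50 µM zinc acetate. The proteins were Ni–NTA-purified transcription factors with N-terminal polyhistidine and DsRed fusions, expressed in E. coli BL21-CodonPlus.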
row,Sequence,binding signal
1,TTATATGCGCTCCTTCACATTCTTCCATGCTCCATATAGCCGGAGTCACCTAGTGCAG,8460 fluorescence intensity (a.u.)
2,CGGCTCGATCGCAACTTCACATCGCGCATCCACTCCACACCGGAGTCACCTAGTGCAG,9300 fluorescence intensity (a.u.)
3,ACAGTGGAGACCCGGCCCCTTCAGTTGCCACTTGCCAGACCGGAGTCACCTAGTGCAG,8630 fluorescence intensity (a.u.)
4,GTGCTGTGATTGGCCGCGCGGGATTTCCTGGGCGGGCGGGCGGAGTCACCTAGTGCAG,15500 fluorescence intensity (a.u.)
5,GGTAGTGGTGCCGGCCTTTTTATCCTGGCACTTGGTGCTGCGGAGTCACCTAGTGCAG,8490 fluorescence intensity (a.u.)
6,GAAAGCCTCCATTGCCAGTTTCTTCACCTGCTTTGCTTAACGGAGTCACCTAGTGCAG,11400 fluorescence intensity (a.u.)
7,CCCGTTCTCGCGCCCATCGATCCACCCCACCAAAACCCCACGGAGTCACCTAGTGCAG,8790 fluorescence intensity (a.u.)
8,GCCCGTCAGCCCAAAAGTTGACGACTTCCCGTCGCGCTAGCGGAGTCACCTAGTGCAG,8160 fluorescence intensity (a.u.)
9,CATTTCATCGAACACCTTGCAATCACCCTCTCACCACCGCCGGAGTCACCTAGTGCAG,9400 fluorescence intensity (a.u.)
10,CCCAAAACGGCCTCGTCTCACCTTCTCTCTCGCACCCGCACGGAGTCACCTAGTGCAG,9030 fluorescence intensity (a.u.)
11,TATTGTCTGGGGTTTGCTTATTGGCTTTTCAGGCCATGTCCGGAGTCACCTAGTGCAG,9320 fluorescence intensity (a.u.)
12,GCTCCAATAGGAAGCGAGTAAATGACACACAACAAGTTACCGGAGTCACCTAGTGCAG,13600 fluorescence intensity (a.u.)
13,TGTCTTAATTTCGTGGAAGGCCATAGCGGAGAGATCAAAACGGAGTCACCTAGTGCAG,17400 fluorescence intensity (a.u.)
14,ACGGTCGATTCCCTCTGCCTGCCCTCTGCTTTACTTGACCCGGAGTCACCTAGTGCAG,9870 fluorescence intensity (a.u.)
15,TTGGCTGATGTCTATTGTTGAATGTCAGAGCTGCTTTTCGCGGAGTCACCTAGTGCAG,9120 fluorescence intensity (a.u.)
16,TCTATCGCTTTACTCTCTCTGTCCCTGGCTTTCTTCGTCTCGGAGTCACCTAGTGCAG,13400 fluorescence intensity (a.u.)
17,TCCATCTCTGGATTTCTGTCCATATTCTCTTTGTTAGCCTCGGAGTCACCTAGTGCAG,9640 fluorescence intensity (a.u.)
18,AATACTGCTGGTATTAGCTAGGCGTTGATAGTGGCCGGGGCGGAGTCACCTAGTGCAG,8660 fluorescence intensity (a.u.)
19,CCCTCTCTCTCTTTCGTTTTTTTTGGATTTTTAGTGAATACGGAGTCACCTAGTGCAG,9040 fluorescence intensity (a.u.)
20,TTCTTGGGAGATTTGGATCATATAACCTCCGTTTAGATTTCGGAGTCACCTAGTGCAG,8940 fluorescence intensity (a.u.)
21,CGTCGCATTGTTCATCGGGTCCCTCGTGTCCATCCCTACACGGAGTCACCTAGTGCAG,11600 fluorescence intensity (a.u.)

row,Sequence,binding signal
1,GGTTAGGGTCATCTCGCCACCACCCATTTTCCTCTCAAACCGGAGTCACCTAGTGCAG,12200 fluorescence intensity (a.u.)
2,CAATATTTTATCCCTAATCTTCTTATAGCCTGTATATTCTCGGAGTCACCTAGTGCAG,10000 fluorescence intensity (a.u.)
3,AATTGACGACGTTGACCTCGCTGTTGAGCGTTGACCCGGCCGGAGTCACCTAGTGCAG,13300 fluorescence intensity (a.u.)
4,TCTCGGGCTGGGCATCGCATCTTTAGAATTGATTGAGTGACGGAGTCACCTAGTGCAG,9860 fluorescence intensity (a.u.)
5,CGCATCAACCAGACAGCCACTTTACCACTAACTACGCAATCGGAGTCACCTAGTGCAG,8830 fluorescence intensity (a.u.)
6,TATACTTCCTCTATCATAGTTTTACACTGTTTATATTTAACGGAGTCACCTAGTGCAG,8480 fluorescence intensity (a.u.)
7,TCCATTAGTCGCAACTGCCATGCATGATTCTGCACCTTGACGGAGTCACCTAGTGCAG,8150 fluorescence intensity (a.u.)
8,ACCTTTCTGGCTTGGACGGAGGTGCCGTTTATCTCTACCACGGAGTCACCTAGTGCAG,9050 fluorescence intensity (a.u.)
9,CCTACACTGTTGTTCTTTTAGATTGAGACGTCCGATTTTTCGGAGTCACCTAGTGCAG,9000 fluorescence intensity (a.u.)
10,TGGTCTAGCGGCAAGCGTTCAACGTATTTGTCCCACCTAACGGAGTCACCTAGTGCAG,8860 fluorescence intensity (a.u.)
11,ATCATCGCTTCTGATCAACCCATTCACCGGCACGGCCATGCGGAGTCACCTAGTGCAG,10200 fluorescence intensity (a.u.)
12,CCCTTCGTCTCCGCCGCCGCCGGAATCGGGCCTCGCCATCCGGAGTCACCTAGTGCAG,8210 fluorescence intensity (a.u.)
13,GCACCACCGTCTCCGCCTCCGCGCCGCCGCCGTCGTCTCCCGGAGTCACCTAGTGCAG,11300 fluorescence intensity (a.u.)
14,TGTTTTTAGCTGCATTCTGCTATTCTTGTGGCAAACCAATCGGAGTCACCTAGTGCAG,8820 fluorescence intensity (a.u.)
15,AGCTGTATTTCTTCAGTTTCATAAATAGTTTTGACCTTTGCGGAGTCACCTAGTGCAG,8410 fluorescence intensity (a.u.)
16,TGTTATCCAAAGTACTGCAGGTCTGACCTCATGTTCTACTCGGAGTCACCTAGTGCAG,10100 fluorescence intensity (a.u.)
17,TGGCAGCTTTGGTTCAACCTCGTCGATCTCTATCTCTCTCCGGAGTCACCTAGTGCAG,8920 fluorescence intensity (a.u.)
18,TGCCGTGCCAACTGAGCACCCACGTTGCATCACCGCTTACCGGAGTCACCTAGTGCAG,9900 fluorescence intensity (a.u.)
19,AATATTCGGCTCGTTTACTGTTTCTTTGTGTTTTGTTTCCCGGAGTCACCTAGTGCAG,10900 fluorescence intensity (a.u.)
20,CAGCACCACCAGCTCTCGCCTCTTGCCAATGCCAATGTATCGGAGTCACCTAGTGCAG,8390 fluorescence intensity (a.u.)
21,CTCAAAATCTCCGTCTGGTAATTAGTTTTCTGTGATTTTTCGGAGTCACCTAGTGCAG,10200 fluorescence intensity (a.u.)

# A few values from the entries so far.
# binding signal with GGTTAGGGTCATCTCGCCACCACCCATTTTCCTCTCAAACCGGAGTCACCTAGTGCAG reads 12200 fluorescence intensity (a.u.)
# binding signal with TATACTTCCTCTATCATAGTTTTACACTGTTTATATTTAACGGAGTCACCTAGTGCAG reads 8480 fluorescence intensity (a.u.)
# binding signal with TCCATTAGTCGCAACTGCCATGCATGATTCTGCACCTTGACGGAGTCACCTAGTGCAG reads 8150 fluorescence intensity (a.u.)
